Assay results as given in paper PMC7893051.
Results from cells or extracts need not show a direct contact. Negatives hold for the conditions tested. For at least one entry, the source does not settle the construct or the ends of the probe.

Legend:
[1] = molecular target: HA-EBB1 (EARLY BUD-BREAK 1) (UniProt F8QPW1); assay: EMSA; conditions: poly(dI:dC), BSA, SVL EMSA: 10 uL protoplast extract, EMSA buffer (composition not given), protein in a lysate after overexpression, protein details: HA, label: biotin
[2] = molecular target: HA-EBB3 (EARLY BUD-BREAK 3) (UniProt B9I411); assay: EMSA; conditions: poly(dI:dC), BSA, SVL EMSA: 10 uL protoplast extract, EMSA buffer (composition not given), protein in a lysate after overexpression, protein details: HA, label: biotin

Sequence	binding result [1]	binding result [2]
TTAGCAAAATGACGACTGTTTTACTCC (double strand) [SVL Prom F1m2]	no binding	
TTAGCAAAATGCAGCATGTTTTACTCC (double strand) [SVL Prom F1m1]	no binding	
TTAGCAAAATGCCGCCTGTTTTACTCC (double strand) [SVL Prom F1 (27 bp, GCC-box)]	binds	no binding
TTAGCAAAATTTCTTCTGTTTTACTCC (double strand) [SVL Prom F1m3]	no binding	
